Patent US20250320261A1, “ANTIBACTERIAL PEPTIDE” (priority 2021, published 2025)
Not every detail of the peptide structures is certain; ends, links or a residue may be inferred. Peptide text beside a SMILES is read from it. * marks the point of attachment. Heptanoyl = CCCCCCC(=O)*

Tests used:
[1] = tested on: S. aureus (ATCC 29213, MSSA); assay type: cell-based, Staphylococcus aureus; conditions: compared with peptide #6 or the parent lipopeptide
Method: (§1) S. aureus (ATCC 29213, MSSA, ATCC, Manassas, VA) and E. coli (K-12 MG1655) were streaked on Luria-Bertani (LB) agar plates and incubated at 37° C. overnight. Single colonies were inoculated into 5 ml of LB broth and incubated on a shaker (400 rpm) at 37° C. overnight. The bacterial concentrations were determined by viable count and were adjusted to correlate with approximately 10^9 CFU/ml.
(§2) The broth microdilution method was used to determine minimal inhibitory concentration (MIC) and minimal bactericidal concentration (MBC). Two-fold serial dilutions of the peptides were used, and the final concentrations ranged from 0.19-100 μM. The effect of peptide-antibiotic combinations was investigated by performing a checkerboard analysis. […] The fractional inhibitory concentration (FIC) and fractional bactericidal concentration (FBC) were calculated by the equation (MIC or MBC of peptide in combination/MIC or MBC of peptide […] alone)+(MIC or MBC of antibiotic in combination/MIC or MBC of antibiotic alone). Synergy was defined as FIC/FBC≤0.5, additive when 0.5<FIC/FBC≤1, indifferent when 1<FIC/FBC<2 and antagonistic when FIC/FBC≥2. All experiments were repeated at least three times.

[2] = tested on: E. coli (K-12 MG1655); experiment: Broth microdilution MIC/MBC; assay type: cell-based, Escherichia coli; conditions: compared with peptide #6 or the parent lipopeptide
Method: as §1, §2

CCCCCCC(=O)N[C@@H](CC(C)C)C(=O)NCC(=O)N[C@H](C(=O)N[C@@H](CCCCN)C(=O)N[C@H](C(=O)N[C@@H](CC(C)C)C(=O)N[C@@H](Cc1c[nH]c2ccccc12)C(=O)N[C@@H](CO)C(=O)N[C@@H](C)C(=O)N[C@@H](Cc1ccc(O)cc1)C(=O)N[C@@H](CCCCN)C(=O)N[C@@H](Cc1c[nH]cn1)C(=O)N[C@@H](CCCNC(=N)N)C(=O)N[C@@H](CCCCN)C(=O)N[C@H](C(=O)N[C@H](C(N)=O)[C@@H](C)CC)[C@@H](C)O)[C@@H](C)CC)[C@@H](C)CC [Peptide 6-C7-N] (Heptanoyl-LGIKILWSAYKHRKTI-NH2)
antimicrobial activity against S. aureus (in words) [1]: maximum | antimicrobial activity against E. coli (in words) [2]: maximum
